Reference: article PMC12222077
Results are given in words; binding and its absence hold for the method and conditions named. In cells and extracts the contact can be indirect. Some binding calls cover weakened binding; strength is not graded here. Sequences can lack the tags named with a protein.

By UniProt entry, the sequences of proteins in these tests, tags left out.
UniProt Q13177: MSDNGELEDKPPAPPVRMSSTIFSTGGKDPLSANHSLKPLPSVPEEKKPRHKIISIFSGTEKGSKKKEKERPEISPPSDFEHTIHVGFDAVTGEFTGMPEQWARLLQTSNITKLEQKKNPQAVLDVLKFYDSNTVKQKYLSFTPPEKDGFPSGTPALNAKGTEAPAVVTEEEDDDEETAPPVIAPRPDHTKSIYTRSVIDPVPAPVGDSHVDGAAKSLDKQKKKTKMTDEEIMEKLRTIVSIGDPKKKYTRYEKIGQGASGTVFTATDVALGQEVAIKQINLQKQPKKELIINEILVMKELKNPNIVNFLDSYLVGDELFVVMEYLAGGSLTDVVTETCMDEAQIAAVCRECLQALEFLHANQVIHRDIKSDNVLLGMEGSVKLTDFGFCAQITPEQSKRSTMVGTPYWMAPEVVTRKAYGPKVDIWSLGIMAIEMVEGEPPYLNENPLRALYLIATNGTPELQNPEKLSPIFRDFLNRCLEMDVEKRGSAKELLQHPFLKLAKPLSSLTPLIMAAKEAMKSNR

T1: Protein phosphatase 1 regulatory subunit 12B (PPP1R12B), Flag-tagged (human) (UniProt O60237)
T1 sequence: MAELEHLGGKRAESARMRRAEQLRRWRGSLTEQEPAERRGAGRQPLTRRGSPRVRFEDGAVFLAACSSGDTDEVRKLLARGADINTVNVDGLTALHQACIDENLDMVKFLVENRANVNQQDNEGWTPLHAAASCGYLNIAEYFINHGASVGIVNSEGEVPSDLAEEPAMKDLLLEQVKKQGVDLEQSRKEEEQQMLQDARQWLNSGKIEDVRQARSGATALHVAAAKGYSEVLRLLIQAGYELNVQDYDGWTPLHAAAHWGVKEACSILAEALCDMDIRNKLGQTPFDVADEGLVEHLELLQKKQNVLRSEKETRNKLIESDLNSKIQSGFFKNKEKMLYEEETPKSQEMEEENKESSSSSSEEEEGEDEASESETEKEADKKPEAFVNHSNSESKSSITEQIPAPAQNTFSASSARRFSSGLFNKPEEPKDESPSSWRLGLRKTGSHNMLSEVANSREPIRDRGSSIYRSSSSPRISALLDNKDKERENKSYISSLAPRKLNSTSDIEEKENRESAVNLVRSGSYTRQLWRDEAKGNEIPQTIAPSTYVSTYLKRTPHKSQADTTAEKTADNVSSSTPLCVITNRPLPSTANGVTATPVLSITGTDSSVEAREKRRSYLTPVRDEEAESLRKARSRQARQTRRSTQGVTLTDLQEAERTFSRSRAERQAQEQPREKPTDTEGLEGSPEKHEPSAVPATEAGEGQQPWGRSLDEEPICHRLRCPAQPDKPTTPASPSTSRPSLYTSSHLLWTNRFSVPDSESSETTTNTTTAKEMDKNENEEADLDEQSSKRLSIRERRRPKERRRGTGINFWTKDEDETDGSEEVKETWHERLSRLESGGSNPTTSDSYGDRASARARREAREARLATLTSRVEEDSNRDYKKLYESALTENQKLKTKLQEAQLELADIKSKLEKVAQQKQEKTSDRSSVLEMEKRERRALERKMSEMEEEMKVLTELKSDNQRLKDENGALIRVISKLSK


Assays:
[1] = molecular target: T1, Protein phosphatase 1 regulatory subunit 12B (PPP1R12B), Flag-tagged (human); assay: co-IP; anti-FLAG antibody precipitates Flag-PPP1R12B from lysates (IP buffer with protease inhibitors) of Huh7 and HepG2 overexpression cells, 4°C overnight, Protein A/G magnetic beads; PAK2 detected by Western blot; IgG as control
[2] = molecular target: p21-activated kinase 2 (PAK2) (human (endogenous in Huh7 and HepG2)) (UniProt Q13177); assay: co-IP; reciprocal: anti-PAK2 antibody precipitates endogenous PAK2 from lysate of Huh7 PPP1R12B overexpression cells, 4°C overnight, Protein A/G magnetic beads; PPP1R12B detected by Western blot; IgG as control

binding [1] | binding [2] | Molecule
binds |  | p21-activated kinase 2 (PAK2) (from UniProt Q13177 1-524) (enzyme)
 | binds | Protein phosphatase 1 regulatory subunit 12B (PPP1R12B), Flag-tagged (protein, UniProt O60237-1 1-982) MAELEHLGGKRAESARMRRAEQLRRWRGSLTEQEPAERRGAGRQPLTRRGSPRVRFEDGAVFLAACSSGDTDEVRKLLARGADINTVNVDGLTALHQACIDENLDMVKFLVENRANVNQQDNEGWTPLHAAASCGYLNIAEYFINHGASVGIVNSEGEVPSDLAEEPAMKDLLLEQVKKQGVDLEQSRKEEEQQMLQDARQWLNSGKIEDVRQARSGATALHVAAAKGYSEVLRLLIQAGYELNVQDYDGWTPLHAAAHWGVKEACSILAEALCDMDIRNKLGQTPFDVADEGLVEHLELLQKKQNVLRSEKETRNKLIESDLNSKIQSGFFKNKEKMLYEEETPKSQEMEEENKESSSSSSEEEEGEDEASESETEKEADKKPEAFVNHSNSESKSSITEQIPAPAQNTFSASSARRFSSGLFNKPEEPKDESPSSWRLGLRKTGSHNMLSEVANSREPIRDRGSSIYRSSSSPRISALLDNKDKERENKSYISSLAPRKLNSTSDIEEKENRESAVNLVRSGSYTRQLWRDEAKGNEIPQTIAPSTYVSTYLKRTPHKSQADTTAEKTADNVSSSTPLCVITNRPLPSTANGVTATPVLSITGTDSSVEAREKRRSYLTPVRDEEAESLRKARSRQARQTRRSTQGVTLTDLQEAERTFSRSRAERQAQEQPREKPTDTEGLEGSPEKHEPSAVPATEAGEGQQPWGRSLDEEPICHRLRCPAQPDKPTTPASPSTSRPSLYTSSHLLWTNRFSVPDSESSETTTNTTTAKEMDKNENEEADLDEQSSKRLSIRERRRPKERRRGTGINFWTKDEDETDGSEEVKETWHERLSRLESGGSNPTTSDSYGDRASARARREAREARLATLTSRVEEDSNRDYKKLYESALTENQKLKTKLQEAQLELADIKSKLEKVAQQKQEKTSDRSSVLEMEKRERRALERKMSEMEEEMKVLTELKSDNQRLKDENGALIRVISKLSK
